Assay results from paper PMC12242654, “Design, Synthesis, and In Vitro Evaluation of the Leishmanicidal Activity of New Aromatic Symmetrical 1,4-Disubstituted 1,2,3-Bistriazoles” (ACS Omega, 2025).

Tested on: promastigote forms of L. amazonensis
Assay: Leishmanicidal activity against promastigote forms of L. amazonensis (resazurin)
Format: cell-based, Leishmania amazonensis
Conditions: CC50 murine macrophage / IC50 promastigote
Description: Promastigotes of L. amazonensis (MHOM/BR/71973/M2269) were grown on 24-well plates in Schneider’s Drosophila medium (Sigma, USA) supplemented with 10.0% (v/v) heat-inactivated fetal bovine serum and 1.0% penicillin (10000 UI mL^–1)/streptomycin (10.0 mg mL^–1) (Sigma, USA). Cells were harvested in the log phase, suspended in a fresh medium, counted in Neubauer’s chamber, and adjusted to a concentration of 1 × 10^6 cells mL^–1 using 24-well plates. The compounds were added to promastigote cultures (1 × 10^6 cells mL^–1) in the range of 0.10–40.00 μg mL^–1, solubilized in dimethyl sulfoxide (DMSO) (0.6%, v/v in all wells), and incubated at 25 °C. After 72 h of incubation, resazurin was used to detect cellular metabolic activity for the determination of 50.0% inhibitory growth concentration (IC50-promastigote). All tests were performed in triplicate at three different times, and amphotericin B (Sigma) was used as the reference drug.

Q: For `O=[N+]([O-])c1ccc(-c2cn(CC(O)Cn3cc(-c4ccc([N+](=O)[O-])cc4)nn3)nn2)cc1` [8b, 1,3-Bis(4-(4-nitrophenyl)-1H-1,2,3-triazol-1-yl)propan-2-ol], which “SI (murine) proma” value is on record?
A: 6.29
